Laboratory results from patent publication US20110159013A1.
These are yes or no findings as the source states them, for the method shown. Some binding calls cover weakened binding; strength is not graded here.

By UniProt entry, the sequences of proteins in these tests, tags left out. Residues count along the entry.
UniProt P05067, residues 672-713: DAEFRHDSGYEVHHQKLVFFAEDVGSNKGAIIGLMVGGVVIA

Tests used:
[1] = biological target: Aβ-derived diffusible ligands (synthetic ADDLs), soluble oligomers of amyloid β1-42; experiment: immunoblot of ADDLs after native gel electrophoresis (column Identified Native ADDLs); immunofluorescence of ADDLs bound to cultured hippocampal cells (column Immunofluorescence)
[2] = biological target: tetramers of ADDLs (multi-dimensional conformation of soluble amyloid β1-42 oligomers, as defined by SDS-PAGE) (UniProt P05067); experiment: recognition of ADDL species defined by SDS-PAGE (see FIG. 3)
[3] = biological target: endogenous fibrils obtained from human tissue (human) (UniProt P05067); experiment: western immunoblot of endogenous human fibrils after SDS-PAGE (column DENATURED SPECIES …: Human Fibrils)
[4] = biological target: higher molecular weight oligomers of the ADDL preparation; experiment: western immunoblot of ADDLs after SDS-PAGE (column DENATURED SPECIES …: HMW ADDLs)
[5] = biological target: Aβ-derived diffusible ligands (synthetic ADDLs), soluble oligomers of amyloid β1-42; experiment: immunocytochemistry of ADDLs bound to hippocampal cells
[6] = biological target: biotinylated ADDLs (bADDLs), oligomers prepared from N-terminal biotinylated amyloid β1-42; experiment: titration ELISA on streptavidin-captured 10% biotinylated ADDL

| Binder | binding [6] | further results |
| --- | --- | --- |
| murine anti-ADDL monoclonal antibody 2D6 (antibody, mouse IgG1, V domains shown) VH: QVTLKESGPGILKPSQTLSLTCSFSGFSLSTSGMGVGWIRQPSGKGLEWLAHIWWDDDKYYNPSLKSQLTISKDTSRNQVFLKITSVDTADTATYYCARRSISTVIPEDYFDYWGQGTILTVSS VL: DVLMTQTPLSLTVSLGDQASISCRSSQSIVHSNGNTYLEWYLQKPGQSPKLLIYKVSNRFSGVPDRFSGSGSGTDFTLKISRVEAEDLGVYYCFQGSHVPLTFGAGTKLELK |  | binding [1]: binds; binding [2]: binds; binding [3]: binds; binding [4]: binds; binding [5]: binds |
| humanized 20C2 version A, CDR grafted, IgG2m4/kappa (antibody) heavy: QVTLKESGPALVKPTQTLTLTCTFSGFSLSTSGMGVGWIRQPPGKALEWLAHIWWDDDKSYNPSLKSRLTISKDTSKNQVVLTMTNMDPVDTATYYCARRQLGLRSIDAMDYWGQGTTVTVSSASTKGPSVFPLAPCSRSTSESTAALGCLVKDYFPEPVTVSWNSGALTSGVHTFPAVLQSSGLYSLSSVVTVTSSNFGTQTYTCNVDHKPSNTKVDKTVERKCCVECPPCPAPPVAGPSVFLFPPKPKDTLMISRTPEVTCVVVDVSQEDPEVQFNWYVDGVEVHNAKTKPREEQFNSTFRVVSVLTVLHQDWLNGKEYKCKVSNKGLPSSIEKTISKTKGQPREPQVYTLPPSREEMTKNQVSLTCLVKGFYPSDIAVEWESNGQPENNYKTTPPMLDSDGSFFLYSKLTVDKSRWQQGNVFSCSVMHEALHNHYTQKSLSLSPGK light: DVVMTQSPLSLPVTPGEPASISCRSSQSILHSNGNTYLEWYLQKPGQSPQLLIYKVSNRFSGVPDRFSGSGSGTDFTLKISRVEAEDVGVYYCFQGSLVPLTFGQGTKLEIKRTVAAPSVFIFPPSDEQLKSGTASVVCLLNNFYPREAKVQWKVDNALQSGNSQESVTEQDSKDSTYSLSSTLTLSKADYEKHKVYACEVTHQGLSSPVTKSFNRGEC | binds |  |
| humanized 20C2 version B, CDR grafted, IgG2m4/kappa (antibody) heavy: QVTLKESGPALVKPTQTLTLTCTLSGFSLSTSGMGVGWIRQPPGKALEWLAHIWWDDDKSYNPSLKSRLTISKDTSKNQVVLTMTNMDPVDTATYYCARRQLGLRSIDAMDYWGQGTTVTVSSASTKGPSVFPLAPCSRSTSESTAALGCLVKDYFPEPVTVSWNSGALTSGVHTFPAVLQSSGLYSLSSVVTVTSSNFGTQTYTCNVDHKPSNTKVDKTVERKCCVECPPCPAPPVAGPSVFLFPPKPKDTLMISRTPEVTCVVVDVSQEDPEVQFNWYVDGVEVHNAKTKPREEQFNSTFRVVSVLTVLHQDWLNGKEYKCKVSNKGLPSSIEKTISKTKGQPREPQVYTLPPSREEMTKNQVSLTCLVKGFYPSDIAVEWESNGQPENNYKTTPPMLDSDGSFFLYSKLTVDKSRWQQGNVFSCSVMHEALHNHYTQKSLSLSPGK light: DVVMTQSPLSLPVTPGEPASISCRSSQSILHSNGNTYLEWYLQKPGQSPQLLIYKVSNRFSGVPDRFSGSGSGTDFTLKISRVEAEDVGVYYCFQGSLVPLTFGQGTKLEIKRTVAAPSVFIFPPSDEQLKSGTASVVCLLNNFYPREAKVQWKVDNALQSGNSQESVTEQDSKDSTYSLSSTLTLSKADYEKHKVYACEVTHQGLSSPVTKSFNRGEC | binds |  |
| humanized 26D6, veneered, HCVR Ven1 IgG1 with LCVR Ven1 Kappa (antibody, V domains shown) VH: QVTLKESGPGIVQPSQTLSLTCSFSGFSLSTSGMGVSWIRQPSGKGLEWLAHIYWDDDKQYNPSLKSRLTISKDTSKNQVFLTITSVDTVDTATYYCVRRASSSRYDDQFDYWGQGTPLTVSS VL: DVVMTQTPLSLPVSLGDPASISCRASQSIVHSNGNTYLEWYLQKPGQSPKLLIYRVSNRFSGVPDRFSGSGSGTDFTLKISRVEAEDLGVYFCFQVTHVPLTFGAGTKLELKR | binds |  |
| humanized 26D6, veneered, HCVR Ven1 IgG1 with LCVR Ven2 Kappa (antibody, V domains shown) VH: QVTLKESGPGIVQPSQTLSLTCSFSGFSLSTSGMGVSWIRQPSGKGLEWLAHIYWDDDKQYNPSLKSRLTISKDTSKNQVFLTITSVDTVDTATYYCVRRASSSRYDDQFDYWGQGTPLTVSS VL: DVVMTQTPLSLPVSLGDPASISCRASQSIVHSNGNTYLEWYLQKPGQSPKLLIYRVSNRFSGVPDRFSGSGSGTDFTLKISRVEAEDVGVYFCFQVTHVPLTFGGGTKLELKR | binds |  |

The next lines start with results.

| binding [6] | Binder | further results |
| --- | --- | --- |
| binds | humanized 26D6, veneered, HCVR Ven2 IgG1 with LCVR Ven2 Kappa (antibody, V domains shown) VH: QVTLKESGPGLVKPTQTLSLTCSFSGFSLSTSGMGVSWIRQPSGKGLEWLAHIYWDDDKQYNPSLKSRLTISKDTSKNQVFLTITSVDPVDTATYYCVRRASSSRYDDQFDYWGQGTPLTVSS VL: DVVMTQTPLSLPVSLGDPASISCRASQSIVHSNGNTYLEWYLQKPGQSPKLLIYRVSNRFSGVPDRFSGSGSGTDFTLKISRVEAEDVGVYFCFQVTHVPLTFGGGTKLELKR |  |
| binds | humanized 26D6, veneered, HCVR Ven2 IgG1 with LCVR Ven1 Kappa (antibody, V domains shown) VH: QVTLKESGPGLVKPTQTLSLTCSFSGFSLSTSGMGVSWIRQPSGKGLEWLAHIYWDDDKQYNPSLKSRLTISKDTSKNQVFLTITSVDPVDTATYYCVRRASSSRYDDQFDYWGQGTPLTVSS VL: DVVMTQTPLSLPVSLGDPASISCRASQSIVHSNGNTYLEWYLQKPGQSPKLLIYRVSNRFSGVPDRFSGSGSGTDFTLKISRVEAEDLGVYFCFQVTHVPLTFGAGTKLELKR |  |
| binds | humanized 26D6, veneered, HCVR Ven3 IgG1 with LCVR Ven2 Kappa (antibody, V domains shown) VH: QVTLKESGPGLVKPTQTLSLTCSFSGFSLSTSGMGVSWIRQPSGKGLEWLAHIYWDDDKQYNPSLKSRLTISKDTSKNQVVLTITSVDPVDTATYYCVRRASSSRYDDQFDYWGQGTLLTVSS VL: DVVMTQTPLSLPVSLGDPASISCRASQSIVHSNGNTYLEWYLQKPGQSPKLLIYRVSNRFSGVPDRFSGSGSGTDFTLKISRVEAEDVGVYFCFQVTHVPLTFGGGTKLELKR |  |
| binds | humanized 26D6, veneered, HCVR Ven3 IgG1 with LCVR Ven1 Kappa (antibody, V domains shown) VH: QVTLKESGPGLVKPTQTLSLTCSFSGFSLSTSGMGVSWIRQPSGKGLEWLAHIYWDDDKQYNPSLKSRLTISKDTSKNQVVLTITSVDPVDTATYYCVRRASSSRYDDQFDYWGQGTLLTVSS VL: DVVMTQTPLSLPVSLGDPASISCRASQSIVHSNGNTYLEWYLQKPGQSPKLLIYRVSNRFSGVPDRFSGSGSGTDFTLKISRVEAEDLGVYFCFQVTHVPLTFGAGTKLELKR |  |
